In PubChem BioAssay AID1794845 (National Center for Advancing Translational Sciences (NCATS), 2023):
Screen size: about 6,900 compounds; fewer than 10 were called active. Calls follow the shape of the dose curve; as a rule, active = well fitted curve in the direction sought with a large enough effect; inconclusive = small, poorly fitted or top-dose-only effect, or another doubt; inactive = no such curve, though single readings can be large or run the other way. The list shows a part of the results.

Chains of the proteins cited; added tags and fusions are not shown. Lines headed by an entry give the natural chain unless they say otherwise; changes in a name come on top.
UniProt C7C422: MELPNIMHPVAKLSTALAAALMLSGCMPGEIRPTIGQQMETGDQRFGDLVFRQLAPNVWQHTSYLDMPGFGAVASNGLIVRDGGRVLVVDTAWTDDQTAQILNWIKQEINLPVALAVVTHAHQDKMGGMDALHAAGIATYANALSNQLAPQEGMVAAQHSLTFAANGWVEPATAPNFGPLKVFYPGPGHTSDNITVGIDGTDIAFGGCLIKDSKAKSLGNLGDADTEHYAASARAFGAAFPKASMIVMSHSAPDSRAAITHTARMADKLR

Biological target: Metallo-beta-lactamase type 2 (Klebsiella pneumoniae) (UniProt C7C422)
Experiment: qHTS to identify inhibitors of the New Delhi Metallo-beta-lactamase (NDM): primary screen against the NCATS Gemini Collection; also: % of control where 0% means no effect
Details: NDM-1 enzyme, meropenem hydrolysis, absorbance 300 nm; at 38.4 µM (top of the series) unless noted
In short: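 Meropenem hydrolysis (50 uM final) by 2 nM NDM-1 read as 300 nm absorbance after 30 min, following >30 min compound–enzyme preincubation in HEPES pH 7.0 with 1 uM ZnSO4 and 0.01% Tween20.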

SMILES	activity % (negative = inhibition)
Cc1[nH]ccc1C(=O)N(CCN1CCCCC1)CC1CCCN(C2CCCC2)C1 (centres undefined)	inactive: -3.84%
CN1c2cccnc2CN(Cc2ccccc2Cl)CC[C@H]1CO	inactive: 7.27% [at 57.5 µM]
CC1(C)[C@H]2CC=C(CN3CCC(CCC(=O)N4CCN(c5ccccc5)CC4)CC3)[C@@H]1C2	inactive: 0.948%
COc1ccc(-n2cccn2)c(CN2CC[C@H](CO)[C@H](O)C2)c1	inactive: 2.9%
COc1ccc(-c2nc3cnccn3c2NCCC(=O)N2CCCC(C)C2)cc1 (centres undefined)	inactive: 7.69%
Cc1ccc(OCC(=O)c2ccc3c(c2)N(CCCC(=O)N2CCCC2)C(=O)CO3)cc1C	inactive: 2.05%
CCCn1c(C)cnc1C1CCNC1 (centres undefined)	inactive: 6.78%
CC(=O)N1CCN([C@H]2[C@@H]3OC[C@@H](O3)[C@@H](NCc3ccccc3O)[C@@H]2O)CC1	inactive: 9.78% [at 57.5 µM]
Cn1cc(-c2ccc3c(n2)CN(Cc2ccc(F)cc2)C(=O)CO3)cn1	inactive: 8.04% [at 57.5 µM]
O=C(NCCN1CCCCC1)[C@H]1C[C@@H](O)[C@H](O)[C@@H]2N=C(Nc3ccc4c(c3)OCO4)S[C@@H]21	inactive: -1.55%
Cc1ncnc(N2CCN(C(=O)C3CCN(C(=O)C4CC4)CC3)CC2)c1C	inactive: 7.66%
CC(C)NC[C@H]1O[C@@H](CO)[C@@H](O)[C@H]1N1CCN(C)CC1	inactive: 69.6% [at 57.5 µM]
Cc1cccc(C(=O)Nc2c(N3CCCCC3)c(-c3cccc(F)c3)nn2C)c1	inactive: -0.0433%
COC(=O)c1ccccc1C(=O)N1CCNC(=O)C1Cc1ccccc1 (centres undefined)	inactive: 2.16%
NC(=O)C1CCN(C(=O)[C@H]2C[C@@H](O)[C@H](O)[C@@H]3N=C(Nc4cccc(C(F)(F)F)c4)S[C@@H]32)CC1	inactive: -1.87%
CCC[C@H]1CN(C(=O)CCc2ccccc2C)C[C@@H]1N	inactive: 2.84%
O=C(O)CC1C(=O)NCCN1C1Cc2ccccc2C1 (centres undefined)	inactive: -2.18%
O=C(NC1CCN(c2cc(-c3ccc(Cl)cc3)[nH]n2)C1)c1ccc(Br)o1 (centres undefined)	inactive: 1.07%
CC(=O)N1CCN(c2nc3c(s2)CC(C(=O)Nc2cc(Cl)ccc2F)CC3)CC1 (centres undefined)	inactive: 13.7%
FC(F)(F)c1ccc(CN2CCC3(CC(c4cccc(C(F)(F)F)c4)=NO3)C2)cc1 (centres undefined)	inactive: 44.2%
O=C(NCc1cccc(Cl)c1)c1cnc2c(c1)N(C(=O)Cc1ccc(O)cc1)CCC2	inactive: 1.04% [at 57.5 µM]

SMILES	activity % (negative = inhibition)
CNc1nc(C(=O)N2CCC3(CCC(=O)N(CC4CCCO4)C3)CC2)cs1 (centres undefined)	inactive: -10.2%
Cn1cc(CN[C@H]2C[C@H]3C(=O)NC[C@@H](CCC(=O)NCc4ccccc4)N3C2)c2ccccc21	inactive: 1.89%
CO[C@H]1C(=O)N(C(C)C)[C@H]1C1CCN(S(=O)(=O)c2ccc3c(c2)CCC3)CC1	inactive: -3.73%
Cc1cc(C(=O)NCC2CCCN(Cc3nnc(-c4cccnc4)o3)C2)no1 (centres undefined)	inactive: -0.307%
CN(C)Cc1cn(C[C@H]2C[C@@H](NC(=O)Nc3ccc4c(c3)OCCO4)[C@H](O)[C@@H]2O)nn1	inactive: 7.24%
O=C(O)c1ccc(CC2CCN(Cc3ccccn3)C2)cc1 (centres undefined)	inactive: 18.1%
N#Cc1ccccc1CN1CCNc2nc(CNCc3ccccc3)n(Cc3ccccc3)c2C1=O	inactive: 19.3%
CCn1ncc(CN2CCC3(CCC3OC)CC2)c1C (centres undefined)	inactive: -3.26%
O=C(Nc1ccc(Cl)nc1)c1ccc2ccnn2c1	inactive: 42.1% [at 57.5 µM]
CN1C[C@H](O)C[C@H]1c1nnc2n1CCN(S(=O)(=O)c1ccccc1)CC2	inactive: 9.86%
O=C(c1ccc(F)cc1)N1CCC(C(=O)N2CCCC(c3nc4ccncc4[nH]3)C2)CC1 (centres undefined)	inactive: 2.95%
Cc1ncccc1C(=O)N1CC[C@@H]2COCCN(Cc3ccncc3)[C@@H]2C1	inactive: 13.7%
COc1ccc(Nc2ccnc(N3CCCC(C(=O)NCc4ccc(F)cc4)C3)n2)cc1 (centres undefined)	inactive: 32.4%
CN(C)C[C@@H]1CN(C)C[C@H]1NS(=O)(=O)c1ccccc1F	inactive: 15.9%
CC(C)(C)n1nnnc1C1CC2(CCOCC2)C(=O)N1Cc1cccs1 (centres undefined)	inactive: 14.4%
CCc1noc(-c2ccn3c(CNC(=O)Cc4c[nH]c5ccccc45)nnc3c2)n1	inactive: 2.29%
CC1(NC(=O)C2CC2)CN(Cc2nc(-c3ccccc3OCc3ccccc3)cs2)C1	inactive: 3.21% [at 57.5 µM]
O=C(c1cccs1)N1CCC2(CC1)CN(C1CCC1)CC2CO (centres undefined)	inactive: -6.74%
C=CCN1CCN(C(=O)C2N(c3ccc(OC)cc3)C(=O)C23CCCCC3)CC1 (centres undefined)	inactive: 12.6%
COCCN1CC(CO)C2(CCN(C3CCC3)CC2)C1 (centres undefined)	inactive: -5.91%
NCCCC(=O)N1CCN(C2CCNCC2)C(=O)C1	inactive: -1.32%

SMILES	activity % (negative = inhibition)
C[C@H]1[C@@H]2[C@@H](O)C([C@H](C)C(=O)N3CCCC3)CC[C@@]2(C)CC[C@@H]1NC(=O)Nc1cccc(F)c1 (some centres undefined)	inactive: -1.02%
COCCNC(=O)c1ccc(OC2CCN(Cc3ccc(OC)cc3F)CC2)c(Cl)c1	inactive: -2.86%
O=C(CCc1nnn2c1CN(C(=O)NCc1ccccc1)CC2)N1CCCC1	inactive: -2.37%
O=C(NCC(=O)N1CCN(Cc2ccccc2)CC1)c1cccc(-c2ccsc2)c1	inactive: -12.8%
O=[S+]1([O-])NC2(CCN(Cc3ccoc3)CC2)COc2ccccc21	inactive: 7.13%
CCc1noc(-c2nc(Cc3cccc(F)c3)no2)n1	inactive: 5.25%
CC1(C)CN(C(=O)c2ccnc(-n3cnnc3)c2)CC1(C)O (centres undefined)	inactive: 14.4%
COc1ccc(NC(=O)CCC2CCCN(C(=O)c3ccccc3SC)C2)cc1Cl (centres undefined)	inactive: 3.78%
CCN1CCN(C(=O)c2ccc3nnc(-c4cccnc4)n3c2)CC1	inactive: 13.6% [at 57.5 µM]
O=C1NCCOCCN(C(=O)c2nccc3ccccc23)[C@H]2CCC[C@@H]12	inactive: 47.4%
Cc1noc(C)c1CN1CCOC[C@H](O)C1	inactive: -2.93% [at 77.1 µM]
Cc1nc(C2(C)CCN(C(=O)CCc3cc(Cl)no3)CC2)no1	inactive: -8.61%
CCC[C@H]1CN(C(=O)c2ccc3c(c2)NC(=O)CN3)C[C@@H]1N	inactive: 55.8%
Cn1nccc1C(=O)N1CC(c2nc(CCOCC3CCCC3)no2)C1	inactive: -2.62%
CCN(Cc1cnn(CC)c1)C(=O)C1COc2ccccc2C1 (centres undefined)	inactive: 18.4%
Cn1ccc(C(=O)N[C@@H]2COCC[C@@H]2OCc2cscn2)cc1=O	inactive: 1.36%
CCOC(=O)CCNC(=O)N1CCCC(c2nc(C(C)C)no2)CCNC(=O)CC1 (centres undefined)	inactive: 5.5%
CN1CC(=O)N(C2CCCNCC2)Cc2c1ncnc2N1CCCC1CO (centres undefined)	inactive: 13.1%
Cc1ccc(NC(=O)N2CCc3c(c4ccccc4n3CC3CC3)C2)cc1	inactive: 15.8%
CNC(=O)[C@@H](C1CCCCC1)N1CCC[C@H]1C(=O)NCCN1CCOCC1	inactive: 21.2% [at 57.5 µM]
CCS(=O)(=O)N1CC(F)(F)C[C@H]1c1nc(-c2cccnc2)no1	inactive: -14.6%

Random excerpt: 5 compounds from above.
SMILES	activity % (negative = inhibition)
O=C(CCc1nnn2c1CN(C(=O)NCc1ccccc1)CC2)N1CCCC1	inactive: -2.37%
O=C(Nc1ccc(Cl)nc1)c1ccc2ccnn2c1	inactive: 42.1% [at 57.5 µM]
CCCn1c(C)cnc1C1CCNC1 (centres undefined)	inactive: 6.78%
Cn1nccc1C(=O)N1CC(c2nc(CCOCC3CCCC3)no2)C1	inactive: -2.62%
CCC[C@H]1CN(C(=O)c2ccc3c(c2)NC(=O)CN3)C[C@@H]1N	inactive: 55.8%

(next part)

SMILES	activity % (negative = inhibition)
O=C(Cc1cccs1)N1CCOc2ccc(CN3CCCCC3)cc2C1	inactive: 5.06%
CN(C)C[C@H]1C[C@@H](CO)CN(C(=O)c2ccccc2-c2ccc(F)cc2)C1	inactive: -2.84%
CC(=O)N1C[C@@H](NC(=O)Nc2ccc(F)cc2F)C[C@H]1C(=O)N[C@H](Cc1c[nH]c2ccccc12)C(N)=O	inactive: -10.3%
COC(=O)[C@@H]1Cc2ncn(Cc3ccc(Cl)cc3)c2CN1CCCc1ccccc1	inactive: -2.28% [at 57.5 µM]
C[S+](=O)([O-])N1C2CCC1CN(c1ccc(C(F)(F)F)cc1)C2	inactive: 4.56%
Cn1nc(N2CCC(NC(=O)c3ncccn3)CC2)ccc1=O	inactive: -1.3%
COc1ccc(C(C)NC(=O)c2ccc(Cn3ccn4nc5c(c4c3=O)CCCC5)cc2)cc1OC (centres undefined)	inactive: 1.76%
CN1C[C@H](C(=O)Nc2ccccc2)C[C@H]1c1cccc(C(F)(F)F)c1	inactive: -1.94% [at 57.5 µM]
CC(=O)N1CCC2(C1)N=C(c1ccccn1)C(=O)N2 (centres undefined)	inactive: 12.6% [at 57.5 µM]
CC(C)CN1C(=O)c2cccn2CC1C(=O)N(C)Cc1cccnc1 (centres undefined)	inactive: 4.23%
Cc1cccc(CC(=O)N2CCCCC2c2nc(C3CC3)n[nH]2)c1 (centres undefined)	inactive: 0.916%
COC1CCN(CC2CCCCCN2)CC1 (centres undefined)	inactive: -2.65%
COc1ncccc1-c1nccn2c(C3CN(Cc4ccccc4O)C3)ncc12	inactive: 38% [at 57.5 µM]
O=C(c1cc(F)ccc1F)N1CCCCC1c1nc(-c2cnccn2)n[nH]1 (centres undefined)	inactive: 32.8%
COC1CCC12CCN(C(=O)c1cnc(C)cn1)CC2 (centres undefined)	inactive: 10.9%
COc1ccc(CN2CC(Oc3ccccc3C(=O)NCc3ccccc3)C2)c(OC)c1	inactive: 10.8%
CCCCNC(=O)c1cccc(-c2cc(N3CCN(C)CC3)nc(N)n2)c1	inactive: -0.441%
Cc1cc(C)n(CC(=O)N2CCC(c3nc(CCOCC4CCCC4)no3)C2)n1 (centres undefined)	inactive: 37.5%
O=C(CCN1CCCCO1)N1CCOC(CCCc2ccccc2)C1 (centres undefined)	inactive: -2.44%
CCn1cc(CN2CCCC23CCN(c2cc(C)nc4ccccc24)CC3)c(C)n1	inactive: 10.9%
Cc1ncoc1C(=O)N1CC[C@@H]2COCCN(Cc3ccncc3)[C@@H]2C1	inactive: 12.6%
